Patent US20160024199A1
Where a chain is given by its changes, count along the chain named. Results are given in words; binding and its absence hold for the method and conditions named. For some of these results: Binding calls can cover weak binding; strength is not graded here.

Tests used:
[1] = molecular target: recombinant human insulin-like growth factor I (IGF-I) (human); experiment: flow cytometry blocking assay: scFv pre-incubated with biotinylated IGF-I, mixture added to MCF-7 cells (IGF-IR and IR), streptavidin-PE; scFv concentration not given
[2] = molecular target: recombinant human insulin-like growth factor I (IGF-I) (human); experiment: flow cytometry blocking assay: IgG pre-incubated with biotinylated IGF-I, mixture added to MCF-7 cells (IGF-IR and IR), streptavidin-PE; IgG concentration not given
[3] = molecular target: recombinant human insulin-like growth factor I (IGF-I) (human); experiment: ELISA after 9 days in human sera at 37 C
[4] = molecular target: recombinant human insulin-like growth factor I (IGF-I) (human); experiment: ELISA on coated IGF-I after incubation of the antibody with an equal volume of human serum at 37 C for 0 to 9 days
[5] = molecular target: recombinant human insulin-like growth factor I (IGF-I) (human); experiment: ELISA, IgG on coated antigen
[6] = molecular target: recombinant human insulin-like growth factor I (IGF-I) (human); experiment: flow cytometry blocking assay: 5 nM biotinylated IGF-I on MCF-7 cells (IGF-IR and IR) in the presence of the antibody, streptavidin-PE; antibody concentration not given
[7] = molecular target: recombinant human insulin-like growth factor I (IGF-I) (human); experiment: ELISA, 10 nM IgG on coated IGF-I, detected with HRP anti-human Fc antibody
[8] = molecular target: Mesothelin; experiment: ELISA, 10 nM IgG on the coated irrelevant antigen, detected with HRP anti-human Fc antibody
[9] = molecular target: Folate receptor β; experiment: as above
[10] = molecular target: recombinant human insulin-like growth factor I (IGF-I) (human); experiment: ELISA, serial dilutions of IgG on coated IGF-I, detected with HRP anti-human Fc antibody
[11] = molecular target: recombinant human insulin-like growth factor I (IGF-I) (human); experiment: phage ELISA

B1: m708.5 scFv (scFv, V domains shown)
VH: QVQLQQLGAEVKMPGSSVKVSCKASGGTFSSYAISWVRQAPGQGLEWMGGIIPTLGIVKYAQKFQGRVTITADKSTSTAYMELSSLGSEDTAVYYCAGGPRGYSYNFDNWGQGTLVTVSS
VL: DIQMTQSPSSLSASVGDRVTIVCRASQTISRYVNWYQQKPGKAPKLLIYAASSLQSGVSSRFSGSGSGTEFALTISSLQPEDFATYFCQQTYSPPITFGQGTRLEIKQ
With B1 the binding [1] was “binds”.

B2: IgG1 m708.5 (antibody, V domains shown)
VH: B1 VH
VL: B1 VL
B2 was tested, and the binding [2] was “binds”, the binding [3] was “binds” and the binding [4] was “binds”. The binding [5] was “binds”, the binding [6] was “binds” and the binding [7] was “binds”. For the same binder, the binding [8] was “no binding (tested: 10 nM)”, the binding [9] was “no binding (tested: 10 nM)” and the binding [10] was “binds”.

B3: IgG1 m708.2 (antibody, V domains shown)
VH: B1 VH with L7P, M13K, T54I, V58A, K59N, K74E, G87R, G98R, N109Y
VL: B1 VL with V22A, V33L, A72T, Q108R
With B3 the binding [5] was “binds” and the binding [10] was “binds”.

B4: m708.2 (phage-displayed Fab clone from the light chain shuffled library) (Fab, V domains shown)
VH: B1 VH with L7P, M13K, T54I, V58A, K59N, K74E, G87R, G98R, N109Y
VL: B1 VL with V22A, V33L, A72T, Q108R
B4 was tested, and the binding [11] was “binds”.
